These are yes or no findings as the source states them, for the method shown. For part of these data: A result given as binding can be weak or reduced; the word gives no strength.
Experiments:
[1] = molecular target: full-length human HSPB7 (isoform 2) (human); assay: native MS; FLNCd24 alone, and mixed at a monomer ratio of 1:1 with HSPB7, HSPB7ΔN or HSPB7ACD; 200 mM ammonium acetate pH 6.9 (full-length HSPB7: 1 M); both purified
[2] = molecular target: HSPB1ACD (α-crystallin domain of HSPB1) (human); assay: native MS; ACD incubated with C-terminal peptide, peptide titration; 200 mM ammonium acetate pH 6.9; acetonitrile added to the source housing; fit with a Hill slope model for 1:1 binding; both purified
[3] = molecular target: HSPB5ACD (α-crystallin domain of HSPB5) (human); assay: as above

B1: FLNCd24 (domain 24 of filamin C, residues 2630-2724), wild type (domain or fragment, UniProt Q14315 2630-2724)
chain: GSKFSSDASKVVTRGPGLSQAFVGQKNSFTVDCSKAGTNMMMVGVHGPKTPCEEVYVKHMGNRVYNVTYTVKEKGDYILIVKWGDESVPGSPFKVKV
binding [1]: binds

B2: HSPB7 C-terminal peptide (residues 168-175, TFRTEIKI) (peptide)
peptide: TFRTEIKI
binding [2]: no binding | binding [3]: no binding

Reference: paper PMC12046049
